Data published in article PMC12284618 (Chemistry (Weinheim an Der Bergstrasse, Germany), 2025).
Some peptides are written in HELM: one residue between dots, names in brackets for other building blocks, links after the first $.

Assay: general procedure: Fmoc solid-phase peptide synthesis; Fmoc-Rink MBHA Amide resin (low loading, 0.42 mmol/g); HBTU/HOBt/DIPEA, then DIC/HOBt (double coupling)
Conditions: late stage modification step; for final HPLC purity: 218 nm

Substance: PEPTIDE1{[PraTzM6Po].W.[PraTzM6Po].K.[PraTzM6Po].[am]}$$$$V2.0
- step yield: 54%
- final HPLC purity: ≥95%

Substance: PEPTIDE1{[ac].[PraTzM6Po].W.[PraTzM6Po].[Lys(Ac)].[PraTzM6Po].[am]}$$$$V2.0
- step yield: 44%
- final HPLC purity: ≥95%
